Not every detail of the peptide structures is certain; ends, links or a residue may be inferred. Where a SMILES comes first, the peptide text is derived from it. [ ]: non-standard residue; d: D form. dPhe(4-Cl) = N[C@H](Cc1ccc(Cl)cc1)C(=O)O; dPhe(4-F) = N[C@H](Cc1ccc(F)cc1)C(=O)O; NMeL = CN[C@@H](CC(C)C)C(=O)O; ΔPro = O=C(O)[C@@H]1C=CCN1
Test system: male rats
Assay: 14-day daily injection in male rats: gonadal function, hormones, androgen-dependent behavior, fertility and recovery
Format: in vivo, rat
Settings: for testes and seminal vesicles weight: male rats about 320 g, 1 milligram once a day for 14 days by injection in 0.2 ml corn oil; for desire to mate / androgen-dependent behavior during treatment / fertilization during treatment: 1 milligram daily, antagonist alone; for plasma androgen levels / spermatogenesis: 1 milligram once a day for 14 days by injection in corn oil; for immunoreactive gonadotropin and steroid levels (LH, FSH, Testosterone, DHT): 1 milligram once a day for 14 days, relative to control animals; for recovery of testes and seminal vesicle weights, androgen-dependent behavior/desire to mate and spermatogenesis after cessation: following cessation of the 14-day administration; for histological examination of the testes following the 14-day treatment: weeks following cessation of the daily injections
Text: The peptide is used at a level effective to reduce testes and seminal vesicles weights and also to inhibit spermatogenesis after a 14-day administration to male rats. […] Prostate weights of male rats recover in 2-3 weeks and seminal vesicles weights in 4-5 weeks. It is preferred to use dosage levels in the range of from about 0.1 to about 1 milligram per rat per day, which can be administered without detrimental side effects.
Male rats (about 320 grams each) are each treated with 1 milligram of the peptide synthesized in Example I, once a day, for 14 days by injection in 0.2 ml. of corn oil. All the rats show a decrease in testes and seminal vesicles weight, spermatogenesis and plasma androgen levels.
Full recovery of testes and seminal vesicle weights, androgen-dependent behavior and spermatogenesis ultimately occurs following cessation of the 14-day peptide administration. […] Fertility, as assessed by the ability to impregnate females, is restored in all of the rats which have not been sacrificed within 6 weeks after cessation of the injections.
A first group (I) of male rats (about 320 grams each) are each treated with 1 milligram of Peptide A synthesized in Example III, every day for 14 days, by injection in 0.2 ml. of corn oil. All the rats show a decrease in testes and seminal vesicles weight, spermatogenesis and plasma androgen levels.
A second group (II) of similar male rats is each similarly injected with this dosage of antagonist plus 0.2 mg. of testosterone propionate(TP).
Full recovery of testes and seminal vesicle weights as well as desire to mate and spermatogenesis occurs following cessation of the 2-week period of administration.

[1] = male rats, about four weeks after cessation of 14-day treatment
[2] = male rats, after 14-day administration

| Structure (SMILES) | testes and seminal vesicles weight | desire to mate / androgen-dependent behavior during treatment (male rats) | fertilization during treatment (male rats) | plasma androgen levels (male rats) | spermatogenesis (male rats) | immunoreactive gonadotropin and steroid levels (LH, FSH, Testosterone, DHT) (male rats) | sexual behavior after cessation [1] | testes weights relative to control group [1] | spermatogenesis after cessation (male rats, about seven days after the four-week point following cessation) | time for prostate weights to recover [2] | time for seminal vesicles weights to recover [2] | time to restoration of fertility (ability to impregnate females) after cessation of the injections (male rats, all rats not sacrificed) [weeks] | recovery of testes and seminal vesicle weights, androgen-dependent behavior/desire to mate and spermatogenesis after cessation (male rats) | Testosterone(T) levels following cessation of treatment for 14 days (male rats, versus control animals) | histological examination of the testes following the 14-day treatment (male rats) | androgen-dependent behavior, desire to mate, with androgen co-administration (Group II male rats, 1 milligram antagonist plus 0.2 mg testosterone propionate(TP) daily for 14 days) | fertility (ability to sire offspring) with androgen co-administration (Group II male rats, 1 milligram antagonist plus 0.2 mg testosterone propionate(TP), end of the 2-week treatment period) |
| --- | --- | --- | --- | --- | --- | --- | --- | --- | --- | --- | --- | --- | --- | --- | --- | --- | --- |
| CC(=O)N1CC=C[C@H]1C(=O)N[C@H](Cc1ccc(Cl)cc1)C(=O)N[C@H](Cc1c[nH]c2ccccc12)C(=O)N[C@@H](CO)C(=O)N[C@@H](Cc1ccc(O)cc1)C(=O)N[C@H](Cc1c[nH]c2ccccc12)C(=O)N(C)[C@@H](CC(C)C)C(=O)N[C@@H](CCCNC(=N)N)C(=O)N1CCC[C@H]1C(=O)NCC(N)=O [Example I, [Ac-dehydro Pro^1, pCl--D--Phe^2, D--Trp^3,6, NαMeLeu^7]-LRF] (Ac-[ΔPro][dPhe(4-Cl)][dW]SY[dW][NMeL]RPG-NH2) | decrease | no desire to mate | do not cause fertilization after treatment has progressed for about 7 consecutive days | decrease | decrease | decreased relative to control animals | returns to normal | about 80% | good spermatogenesis is apparent in a majority of the tubules | 2-3 weeks | 4-5 weeks | ≤ 6 | Full recovery | comparable to those of control animals within one week | arrested spermatogenesis for a period of several weeks | – | – |
| CC(=O)N1CC=C[C@H]1C(=O)N[C@H](Cc1ccc(F)cc1)C(=O)N[C@H](Cc1c[nH]c2ccccc12)C(=O)N[C@@H](CO)C(=O)N[C@@H](Cc1ccc(O)cc1)C(=O)N[C@H](Cc1c[nH]c2ccccc12)C(=O)N[C@@H](CC(C)C)C(=O)N[C@@H](CCCNC(=N)N)C(=O)N1CCC[C@H]1C(=O)NCC(N)=O [Peptide A] (Ac-[ΔPro][dPhe(4-F)][dW]SY[dW]LRPG-NH2) | decrease | quickly lose their androgen-dependent behavior, including their desire to mate | none causes fertilization after the fourth injection | decrease | decrease | decreased relative to the control animals | – | – | – | – | – | – | Full recovery | – | arrested spermatogenesis for a period of a few weeks | maintain their androgen-dependent behavior | all of the rats are infertile |

Source: patent publication US4489061A, “Treatment of male mammals” (The Salk Institute for Biological Studies, priority 1982, dated 1984)
